These are yes or no findings as the source states them, for the method shown. Some results given as binding are weak or reduced against the parent protein; the word gives no strength. Where a sequence is shown, tags or fusion partners need not be part of it.
Key:
Test in all cases: pull-down
[1] = molecular target: MBP-tagged D3 (2-720) co-expressed with untagged ASK1 (rice (Oryza sativa) | Arabidopsis) (UniProt Q5VMP0+Q39255)
[2] = molecular target: T1, MBP-His-D53-D1M (182-510) (rice (Oryza sativa)) (UniProt Q2RBP2)
T1 sequence: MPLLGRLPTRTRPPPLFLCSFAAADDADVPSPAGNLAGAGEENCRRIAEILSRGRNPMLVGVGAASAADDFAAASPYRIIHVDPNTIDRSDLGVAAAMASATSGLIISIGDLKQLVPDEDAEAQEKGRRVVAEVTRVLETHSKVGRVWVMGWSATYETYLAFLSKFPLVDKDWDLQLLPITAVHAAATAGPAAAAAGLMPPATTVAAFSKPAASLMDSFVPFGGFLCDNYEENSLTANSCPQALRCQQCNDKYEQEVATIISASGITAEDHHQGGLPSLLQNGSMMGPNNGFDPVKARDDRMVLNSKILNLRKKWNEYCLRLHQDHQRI

Chains of the proteins cited; added tags and fusions are not shown. Lines headed by an entry give the natural chain unless they say otherwise; changes in a name come on top.
UniProt Q5VMP0: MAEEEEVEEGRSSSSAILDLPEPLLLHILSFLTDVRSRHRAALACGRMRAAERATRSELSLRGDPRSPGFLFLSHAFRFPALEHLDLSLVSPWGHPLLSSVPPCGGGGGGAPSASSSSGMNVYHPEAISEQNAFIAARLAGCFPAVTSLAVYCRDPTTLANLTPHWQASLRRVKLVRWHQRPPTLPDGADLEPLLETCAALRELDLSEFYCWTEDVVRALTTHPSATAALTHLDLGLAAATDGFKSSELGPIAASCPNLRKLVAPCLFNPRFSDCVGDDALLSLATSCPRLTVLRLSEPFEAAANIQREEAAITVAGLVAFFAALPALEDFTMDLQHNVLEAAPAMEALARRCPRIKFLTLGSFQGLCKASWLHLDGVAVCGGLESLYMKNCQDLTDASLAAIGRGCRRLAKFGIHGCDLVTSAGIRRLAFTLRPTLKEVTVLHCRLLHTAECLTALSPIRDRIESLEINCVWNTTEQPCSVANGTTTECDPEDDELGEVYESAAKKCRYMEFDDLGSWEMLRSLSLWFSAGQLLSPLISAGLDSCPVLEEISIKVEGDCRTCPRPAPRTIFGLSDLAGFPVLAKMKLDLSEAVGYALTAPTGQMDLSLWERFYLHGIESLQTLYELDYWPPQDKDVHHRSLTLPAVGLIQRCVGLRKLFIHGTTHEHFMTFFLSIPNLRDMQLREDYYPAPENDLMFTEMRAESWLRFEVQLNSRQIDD
UniProt Q39255: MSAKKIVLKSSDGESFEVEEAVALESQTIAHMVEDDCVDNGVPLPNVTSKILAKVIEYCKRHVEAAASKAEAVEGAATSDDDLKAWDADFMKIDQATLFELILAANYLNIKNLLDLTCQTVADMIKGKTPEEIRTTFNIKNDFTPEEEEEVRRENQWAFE

[3] = molecular target: T2, MBP-His-D53-D2 (718-1131) (rice (Oryza sativa)) (UniProt Q2RBP2)
T2 sequence: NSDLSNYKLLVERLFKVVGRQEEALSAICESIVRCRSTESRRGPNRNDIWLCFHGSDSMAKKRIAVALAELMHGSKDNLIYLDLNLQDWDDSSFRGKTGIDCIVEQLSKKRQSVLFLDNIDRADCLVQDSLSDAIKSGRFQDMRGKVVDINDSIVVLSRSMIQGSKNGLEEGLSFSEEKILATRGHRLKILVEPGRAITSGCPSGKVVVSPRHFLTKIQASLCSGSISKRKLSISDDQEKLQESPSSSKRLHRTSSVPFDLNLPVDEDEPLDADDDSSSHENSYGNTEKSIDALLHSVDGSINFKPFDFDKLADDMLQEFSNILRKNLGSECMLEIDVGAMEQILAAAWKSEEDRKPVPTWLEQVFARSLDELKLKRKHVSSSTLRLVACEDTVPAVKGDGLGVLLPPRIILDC

Measured: binding

B1: Glutathione-S-transferase (GST)-tagged D14L (receptor, rice (Oryza sativa), UniProt Q10J20 1-271, looked up)
chain: MGIVEEAHNLRVVGEGKRGVIVLAHGFGTDQSVWKHLVPHLVADYRVVLFDTMGAGPTNPDYFDFSRYATLEGYALDLLAILQELRVASCIYVGHSVSAVIGAIASISRPDLFSKLVLLSASPRYLNDVDYYGGFEQEDLDELFEAMGSNYKAWCSGFAPLCVGGDMESVAVQEFSRTLFNIRPDIALSVAQTIFQSDVRSLLPLVTVPCHIVQSTKDLAVPVVVSEYLHKHLGGDSIVEVMPSEGHLPQLSSPDIVIPVLLRHIQHDIAV
binds weakly: all assays above

— article doi:10.1101/2025.09.29.679124 (bioRxiv, 2025)
